The other results are listed elsewhere or left out.

The assay concerns the target T1, OsSMF1 (Oryza sativa, UniProt Q6ZLB0 1-436).
T1 sequence: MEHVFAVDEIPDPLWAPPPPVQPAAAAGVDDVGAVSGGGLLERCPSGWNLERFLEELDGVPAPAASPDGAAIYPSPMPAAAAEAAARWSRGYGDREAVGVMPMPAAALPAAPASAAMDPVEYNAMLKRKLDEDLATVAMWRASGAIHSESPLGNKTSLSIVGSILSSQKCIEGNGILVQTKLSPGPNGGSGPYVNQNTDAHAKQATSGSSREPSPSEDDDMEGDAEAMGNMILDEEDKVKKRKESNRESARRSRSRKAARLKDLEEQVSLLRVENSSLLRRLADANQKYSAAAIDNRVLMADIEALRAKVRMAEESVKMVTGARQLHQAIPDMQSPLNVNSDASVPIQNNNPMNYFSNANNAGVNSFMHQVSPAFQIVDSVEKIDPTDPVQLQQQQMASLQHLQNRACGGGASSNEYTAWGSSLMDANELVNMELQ
Kind of assay: protein-binding microarray (RPBM); PBS, 2% BSA, 51.3 ng/ul salmon testes DNA, 50 uM zinc acetate, 200 nM TF, 25 C, 1 h; high values mean tight binding. To be noted: protein: recombinant; tags: N-terminal polyhistidine and DsRed monomer fusion (pET32a); chain copies: 2; label: CyDye5-dUTP incorporated in the synthesized complementary strand; 3' TTTTT single-stranded linker to array surface; dsDNA, one strand shown. In short, it runs like this: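 The binding signal for each feature is its fluorescence intensity in arbitrary units. An Axon 4000B scanner was used to read a custom Agilent array that had been made double-stranded with Cy5-dUTP primer extension, blocked with 2% BSA, incubated at 25 °C for 1 h with 200 nM protein in PBS, 2% BSA, salmon testes DNA and 50 µM zinc acetate, and washed. The protein was an N-terminal polyhistidine–DsRed transcription factor fusion from E. coli BL21-CodonPlus, purified on Ni–NTA.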
Take “AGGAAGACAAATCACGAACTCTTAAGGCATCTGTAGTGTTCGGAGTCACCTAGTGCAG”: the binding signal is 3240 fluorescence intensity (a.u.). As for “TCTTACTACAAGTATGATGGCACGTCAAGTTTTACAAAAGCGGAGTCACCTAGTGCAG”, the binding signal is 37800 fluorescence intensity (a.u.). With “ATGGGATGTCTGTTCGGTCGGGACTCATCAGTCGGGACGGCGGAGTCACCTAGTGCAG” the figure was 3230 fluorescence intensity (a.u.); with “TAGCTTTGGTATATCAGTCTGATAGAGGCGAGTCATCCATCGGAGTCACCTAGTGCAG”, 3950 fluorescence intensity (a.u.). On to “AAACTTGAATCAGTTAGCTAACTGCATGACATCCATGTCGCGGAGTCACCTAGTGCAG”, for which the binding signal was 3220 fluorescence intensity (a.u.). As for “ACTGCCCATTGTCCATTGATGACACGGTCACTCACTCCCGCGGAGTCACCTAGTGCAG”, the figure is 3910 fluorescence intensity (a.u.). Take “CGCAGGAGACGATAGCACAAAAGGCAACAGCTACGTGGCGCGGAGTCACCTAGTGCAG”: the binding signal is 5290 fluorescence intensity (a.u.). With “CCCCACCATAGTCCACGTCACCTGCTCAGCGCTCTCCCATCGGAGTCACCTAGTGCAG” the figure was 27900 fluorescence intensity (a.u.).

As to “GAGAGGGGTGCGCAGTGTGTTGTGGTGGTGCACATGACGGCGGAGTCACCTAGTGCAG”, the binding signal was 3510 fluorescence intensity (a.u.). With “GATAGTAAGCTTGGAAGTAGAGTAGTTGTAACTACTCGTACGGAGTCACCTAGTGCAG”, the binding signal was 30200 fluorescence intensity (a.u.).

“AAAGAGATTTTGGGTGAATGTGACACATCATCTATTCATTCGGAGTCACCTAGTGCAG”: the binding signal was 5740 fluorescence intensity (a.u.). With “CTACGATTTGCCACTGACTTTGTCACGTTCTACAACATGCCGGAGTCACCTAGTGCAG” the figure was 4360 fluorescence intensity (a.u.).

On to “CGGGCCGGGCCGCCACGTGAGGCCCATATCCGGACAGAGACGGAGTCACCTAGTGCAG”, for which the binding signal was 3400 fluorescence intensity (a.u.). As for “TTGCTACACTCATTCGGTCATTCACTATACTTTGTGTACGCGGAGTCACCTAGTGCAG”, the figure is 5290 fluorescence intensity (a.u.); as for “AATCAAGTTTGCCTCCCTGCGAATTTGCCACGTGTCTCCTCGGAGTCACCTAGTGCAG”, 30600 fluorescence intensity (a.u.).

In the case of “CTCAAGCAACCACCGTTCATGGATATGACGACGTCGCTGGCGGAGTCACCTAGTGCAG”, the binding signal was 3440 fluorescence intensity (a.u.). In the case of “TCACCTCCATTAGCTATTTAGCTGGCCAGTCATGATCCATCGGAGTCACCTAGTGCAG”, the binding signal is 3960 fluorescence intensity (a.u.). With “ACGTAGGGTATAAGTATAATAACGAGTACAACGTCACGTGCGGAGTCACCTAGTGCAG” the figure was 4360 fluorescence intensity (a.u.). As for “GCACAGCGCAGTCACTCACACTCGCGGTCTCCCTCCCTCCCGGAGTCACCTAGTGCAG”, the figure is 3490 fluorescence intensity (a.u.).

Consider “ACTTGTCACTTGGTTCACACTAAGAGCACTTGACATATCTCGGAGTCACCTAGTGCAG”, for which the binding signal was 17900 fluorescence intensity (a.u.).

Take “TGTCCTATCCTGCCTGCCCTTGCACCTTCCTCTCTGCAAACGGAGTCACCTAGTGCAG”: the binding signal is 3580 fluorescence intensity (a.u.). Turning to “GTCCCTACTGTTTACTACCACTCTTTCTGATCTATGTAGACGGAGTCACCTAGTGCAG”, the binding signal was 3770 fluorescence intensity (a.u.).

With “GCGCTGGGTCGCCGTCGCGCCGTCACTCCCCTACGACTGACGGAGTCACCTAGTGCAG”, the binding signal was 3190 fluorescence intensity (a.u.). In the case of “CACACCAGGTGTTCGACACTCGGGCGAGCGGCGCGTCACGCGGAGTCACCTAGTGCAG”, the binding signal was 3480 fluorescence intensity (a.u.). As for “GCGAAGAGCCGTTCACGTCGCGGATCCGCGTGTCTCGAGCCGGAGTCACCTAGTGCAG”, the figure is 3620 fluorescence intensity (a.u.); as for “CTCTGTGGGGCTTTGGACGGCCGGCGGTGGGGACGAGGTCCGGAGTCACCTAGTGCAG”, 3340 fluorescence intensity (a.u.); as for “ACAGCCAAGTGGGATGACTGGACGGATACTCATCAACTCGCGGAGTCACCTAGTGCAG”, 5510 fluorescence intensity (a.u.). For the sequence “ATCACCACCCAAACGGCACGATCCGGATCGTTTACACTGCCGGAGTCACCTAGTGCAG”, the binding signal is 20600 fluorescence intensity (a.u.).

As for “GGAAGTTGGTGTACCGTTGCTCTGACACGTGGGCCCCAACCGGAGTCACCTAGTGCAG”, the binding signal is 14800 fluorescence intensity (a.u.). Turning to “TACCCCGCGAGACAATGACACATCATCTCACGAGAAGTTACGGAGTCACCTAGTGCAG”, the binding signal is 4120 fluorescence intensity (a.u.).

On to “TCTTCAGATAGTCTTGCAGATCTTGACTACACATCAGCTCCGGAGTCACCTAGTGCAG”, for which the binding signal is 3200 fluorescence intensity (a.u.). As for “GTTGTTATAGTCGCTATATGAGCGAAGTTATGACGTGACACGGAGTCACCTAGTGCAG”, the figure is 6800 fluorescence intensity (a.u.); as for “ACGATCAAATTTAGACATGGAAACTCGTGACTGTGCTTATCGGAGTCACCTAGTGCAG”, 5030 fluorescence intensity (a.u.); as for “TCACATGAATGATCATTAGCATGTCATTATCATGATTATGCGGAGTCACCTAGTGCAG”, 3430 fluorescence intensity (a.u.). For “TCATGATGAATCGGGGTGGTGGAGGTTTGCTTGTTATGGTCGGAGTCACCTAGTGCAG”, the binding signal is 3170 fluorescence intensity (a.u.). With “TAAGACGTTTCGCTTATAATTAATAATATGTATAAGAGGGCGGAGTCACCTAGTGCAG” the figure was 5320 fluorescence intensity (a.u.). On to “GAAAGCATTCGTACACCGGGAGAAAGTGACCCATAGACGACGGAGTCACCTAGTGCAG”, for which the binding signal was 5560 fluorescence intensity (a.u.). For the sequence “TGACTGGCGCGGAGTCACGACGAGTCCGGCCAGTCCACCACGGAGTCACCTAGTGCAG”, the binding signal was 3550 fluorescence intensity (a.u.). With “GTAGTAGTACCGTTACTACTATATGTTCTCTGTTACTGCACGGAGTCACCTAGTGCAG” the figure was 3390 fluorescence intensity (a.u.). In the case of “TGAAGAATGTTGTAAATTAATGGATTGTGTATATCTCACCCGGAGTCACCTAGTGCAG”, the binding signal is 19400 fluorescence intensity (a.u.). Consider “AGAGTAACAAGCTGAAACTGCTGTGGCCACATCACATTCTCGGAGTCACCTAGTGCAG”, for which the binding signal was 4370 fluorescence intensity (a.u.).

On to “TTGAGTGTAGGCAACTGATGATCTGTCAGAACGTAGTCTCCGGAGTCACCTAGTGCAG”, for which the binding signal was 4350 fluorescence intensity (a.u.).

The values above are taken from publication PMC7819943, “Rice protein-binding microarrays: a tool to detect cis-acting elements near promoter regions in rice”.
